## Binding screen against folded nucleic acids

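Each compound is printed as two spots on a slide made to bind it covalently, so it has no test concentration; the read-out is fluorescence of the bound, labelled oligonucleotide. For the PreQ1, TPP and SAM-II riboswitches the laboratory earlier reported (doi:10.1038/s41467-019-09493-3) 1 µM RNA, 2 h, and a rule that included a mean Z-score above 3 (spot signal-to-noise against the whole library), a score well above that on a control array, and duplicate spots agreeing (coefficient of variation under 100). The data file gives only the calls; its cut-offs may differ, and compounds hitting several targets are kept. A missing hit is not proof of no binding, and a hit is not a measured affinity.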 A compound is marked Y if it was called a hit and N if it was screened but was not. This is an unselected part of the compounds tested. A target missing from an entry has no call listed here.

Oligonucleotides screened, 5′ to 3′:
T1: TPP riboswitch RNA three-way junction, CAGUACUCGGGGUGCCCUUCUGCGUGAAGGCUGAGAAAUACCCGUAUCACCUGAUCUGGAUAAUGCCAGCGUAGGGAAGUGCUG. About 160 hits among about 24,000 compounds.
T2: SAM-II riboswitch RNA pseudoknot, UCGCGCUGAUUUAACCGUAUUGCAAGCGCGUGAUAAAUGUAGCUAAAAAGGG. About 200 hits among about 21,000 compounds.

structure: Cc1nc2ccccn2c1-c1csc(Nc2ccc(Cl)cc2)n1
T1: N
T2: N

structure: COC(=O)c1n[nH]c2c1CN(CC1(O)CCCNC1)CC2 (stereo unspecified)
T1: N
T2: N

structure: NS(=O)(=O)c1ccc(NC2=CC(=O)c3ccccc3C2=O)cc1
T1: N
T2: N

structure: NCC(c1ccc(Cl)cc1)C1CCCC1 (stereo unspecified)
T1: N
T2: N

structure: NCCN1C(=O)CC[C@H]2CN(Cc3ccc(Cl)s3)CC[C@H]21
T1: N
T2: N

structure: CCc1cnc(N)nc1NCCn1nc(C(F)(F)F)cc1C
T1: N
T2: N

structure: NNC(=O)c1cc(-c2ccc(N)cc2)nc2ccc(Br)cc12
T1: Y
T2: Y

structure: O=C(c1ccc(N2CCC3(CC2)OCCCC3O)nc1)N1CCCC1 (stereo unspecified)
T1: N
T2: N

structure: N#Cc1c(-c2cccc(-n3cccn3)c2)cc(-c2ccc(O)cc2)nc1N
T1: N
T2: N

structure: Cc1cccc(-c2nc3nc(C)c(CC(=O)N(CCO)Cc4ccccc4)c(C)n3n2)c1
T1: N

structure: COc1cccc(Cn2c(NCc3ccco3)nc3c2c(=O)n(C)c(=O)n3C)c1
T1: N
T2: N

structure: O=C(CCc1ccsc1)N1CCOCC(CO)C1 (stereo unspecified)
T1: N
T2: N

structure: CCN(CCOc1ccc(Cl)cc1)CC1(O)CCCNC1 (stereo unspecified)
T1: N
T2: N

structure: Cc1cc(N)n(-c2ccc3nnc(C)n3n2)n1
T1: N
T2: N

structure: COc1ccc(S(=O)(=O)[C@H]2CS(=O)(=O)C[C@@H]2NCCc2ccc(S(N)(=O)=O)cc2)cc1
T1: N

structure: Nc1ccc2ncc(C(=O)O)c(O)c2c1
T1: N
T2: N

structure: CCNc1c(NS(=O)(=O)CC)c(=O)oc2ccccc12
T1: N
T2: N

structure: O=S(=O)(NCc1cc2n(n1)CCNC2)c1ccc(OC(F)(F)F)cc1
T1: N
T2: N

structure: CC1CCCCN1CC(O)COc1ccccc1C(C)(C)C (stereo unspecified)
T1: N
T2: N

structure: Nc1c(C(=O)Nc2ccc(F)cc2)sc2nc3c(cc12)CCCC3
T1: N
T2: N

structure: Cc1cc(NCCOCCO)n2nc(-c3ccc(Cl)cc3)c(C)c2n1
T1: N
T2: N

structure: COc1ccccc1OCC(O)Cn1c(C2CC(=O)N(c3ccc(F)cc3)C2)nc2ccccc21 (stereo unspecified)
T1: N

structure: CCOC(=O)c1ccc(NC2C=CS(=O)(=O)C2)cc1 (stereo unspecified)
T1: N
T2: N

structure: Cc1[nH]nc(CCC(=O)N2CC[C@@H](c3ccc4c(c3)OCO4)[C@H](O)C2)c1C
T1: N
T2: N

structure: CCCc1cc(CNC(=O)c2ccc(N3CCc4nc(N)sc4C3)nc2)on1
T1: N
T2: N

structure: Nc1ccc(NC(=O)c2ccc(C(=O)Nc3ccc(N)cc3)cc2)cc1
T1: N
T2: N

structure: O=C(c1csc(Cc2ccccc2)n1)N1Cc2cnn(CCO)c2C1
T1: N
T2: N

structure: Cc1n[nH]c(CN2CCN(C)C(CO)C2)c1Cl (stereo unspecified)
T1: N
T2: N

structure: CC(C)Cn1cncc1CNC1CCN(c2ccc(F)cc2)C1 (stereo unspecified)
T1: N
T2: N

structure: Nc1nc(CCC(=O)NCCc2ccc3c(c2)OCO3)cs1
T1: N
T2: N

structure: CCN(C(=O)Nc1ccccc1CN1CCCCC1)[C@H]1COC[C@@H]1O
T1: N
T2: N

structure: Cc1ccc2c(c1Br)C1(C(=O)N2)C(C#N)=C(N)Oc2[nH]nc(C(C)C)c21 (stereo unspecified)
T1: N
T2: N

structure: CC(=O)Nc1ccc2cc3ccc(NC(C)=O)cc3nc2c1
T1: N
T2: N

structure: OCC(CNCc1cc(O)c2cc(F)ccc2n1)Cc1ccsc1 (stereo unspecified)
T1: N
T2: N

structure: CCn1c(C)nnc1SCCNC1CCN(c2nc3ccccc3o2)CC1
T1: N
T2: N

structure: CC1(C)CC(=O)c2c(C(F)(F)F)nn(-c3ccc(C(N)=O)c(NC4CCC(O)CC4)c3)c2C1 (stereo unspecified)
T1: N
T2: N

structure: COc1ccc(C2=C(C)C(NCCCN3CCN(c4cc(C)ccc4C)CC3)=NS2(=O)=O)cc1
T1: N

structure: CCCOc1cc(Cl)c(CN2CC[C@H]3NCCC[C@]3(CO)C2)cc1OC
T1: N
T2: N

structure: COc1ccc(Cl)cc1Nc1cc(C)nc2nc(-c3ccccc3)nn12
T1: N

structure: CC(C)(O)C1C2OC(=O)C1C1(O)CC3OC34C(=O)OC2C14C (stereo unspecified)
T1: N
T2: N

5 of the entries, repeated:

{"structure": "O=C(c1csc(Cc2ccccc2)n1)N1Cc2cnn(CCO)c2C1", "T1": "N", "T2": "N"}
{"structure": "Cc1cccc(-c2nc3nc(C)c(CC(=O)N(CCO)Cc4ccccc4)c(C)n3n2)c1", "T1": "N"}
{"structure": "COc1ccc(S(=O)(=O)[C@H]2CS(=O)(=O)C[C@@H]2NCCc2ccc(S(N)(=O)=O)cc2)cc1", "T1": "N"}
{"structure": "OCC(CNCc1cc(O)c2cc(F)ccc2n1)Cc1ccsc1", "stereo": "stereo unspecified", "T1": "N", "T2": "N"}
{"structure": "CC(C)(O)C1C2OC(=O)C1C1(O)CC3OC34C(=O)OC2C14C", "stereo": "stereo unspecified", "T1": "N", "T2": "N"}

Source: the ROBIN nucleic acid binder screens (doi:10.1002/anie.202211358).